Values from PubChem BioAssay AID1671195 (Yale University, 2021)
The whole screen tested about 22,000 reagents; below is a random part of them. Over the whole deposit, about 1,510 (6.9%) are marked active. 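Active includes knockdowns raising or lowering LDL uptake; positive z-scores mean more uptake, negative mean less.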

Test: 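Regulators of LDL receptor activity judged by labelled LDL uptake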 (primary screen)
System: human Huh7 hepatoma cells
Reagents: siRNA pool against human genes, 18 nM
Duration: about 2 to 2.5 days of knockdown, then 8 h LDL uptake
Treatment: DiI-labelled LDL at 30 µg/ml for 8 h, in lipoprotein-deficient serum medium
Measured: 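Fluorescent LDL signal imaged in cells, scaled to the plate median, robust z-score for each replicate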
Scale: robust z-score: higher = more LDL uptake after knockdown
Hit rule: 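Active when two or more replicates show a robust z-score above 2 or below -2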

| target | PubChem SID | robust z-score, replicate 1 | robust z-score, replicate 2 | robust z-score, replicate 3 | Outcome |
| --- | --- | --- | --- | --- | --- |
| LOC389139 (retired record) | SID442900988 | -1.09 | -0.61 | -0.811 | inactive |
| VSTM2A | SID442897925 | -0.522 | -0.398 | -0.399 | inactive |
| PALMD | SID442892343 | -0.0879 | 0.274 | 0.35 | inactive |
| LOC441689 (retired record) | SID442889318 | 0.702 | 0.417 | 0.617 | inactive |
| HYAL4 | SID442899146 | -0.601 | -0.688 | -0.462 | inactive |
| EGR3 | SID442898367 | -0.78 | -0.112 | -0.58 | inactive |
| TOP1MT | SID442897264 | -0.728 | -0.132 | -0.239 | inactive |
| OTOF | SID442897913 | -0.597 | -0.881 | 0.163 | inactive |
| IL15 | SID442887016 | 1 | 0.909 | 1.1 | inactive |
| LOC440281 (retired record) | SID442893277 | -0.0153 | 0.201 | 0.0215 | inactive |
| TRIM8 | SID442893996 | 0.913 | -0.851 | -0.104 | inactive |
| PRSS37 | SID442883860 | 2.73 | 1.47 | 2.48 | active |
| RHAG | SID442891731 | 0.53 | -0.0214 | 0.243 | inactive |
| ZNF534 | SID442892888 | 0.0121 | 0.306 | 0.0229 | inactive |
| NUP210P1 | SID442903692 | -1.52 | -1.35 | -1.21 | inactive |
| DPY19L3 | SID442890217 | 0.641 | -0.23 | 0.933 | inactive |
| DPY19L3 | SID442898766 | -0.616 | -1.11 | 0.119 | inactive |
| WBP4 | SID442888519 | 0.5 | -0.265 | 1.88 | inactive |
| C10orf88B | SID442888586 | 1.24 | 0.284 | 0.555 | inactive |
| PDE1A | SID442890672 | 0.765 | -0.492 | 0.881 | inactive |
| DCTN1 | SID442900039 | -0.114 | -1.13 | -0.868 | inactive |
| PEX14 | SID442895724 | -0.553 | 0.0708 | -0.117 | inactive |
| HUNK | SID442903932 | -1.64 | -1.1 | -1.57 | inactive |
| NAA40 | SID442888914 | 0.756 | 0.37 | 0.795 | inactive |
| FRG2 | SID442886977 | 0.758 | 1.17 | 1.13 | inactive |
| FOXD4L4 | SID442895386 | 0.0857 | -0.0947 | -0.484 | inactive |
| KRT72 | SID442888935 | 0.231 | 0.979 | 0.703 | inactive |
| ANKRD18DP | SID442897166 | -0.57 | -0.0316 | -0.461 | inactive |
| CFL2 | SID442895745 | 0.166 | -0.069 | -0.703 | inactive |
| LOC387873 (retired record) | SID442885825 | 1.71 | 0.967 | 1.39 | inactive |
| WIF1 | SID442892241 | 0.759 | -0.454 | 0.276 | inactive |
| TRDN | SID442898386 | -0.265 | -0.00264 | -1.21 | inactive |
| BNIP5 | SID442894594 | -0.211 | -0.2 | 0.172 | inactive |
| PIGC | SID442899117 | -0.518 | -0.427 | -0.79 | inactive |
| NLE1 | SID442903963 | -1.96 | -0.815 | -1.57 | inactive |
| HS6ST1 | SID442891908 | 0.586 | -0.105 | 0.212 | inactive |
| ZAN | SID442887236 | 2.22 | 0.178 | 0.474 | inactive |
| ANGEL2 | SID442890631 | 0.636 | 0.348 | 0.185 | inactive |
| SLC4A2 | SID442900382 | -0.794 | -0.474 | -0.991 | inactive |
| ABLIM3 | SID442889743 | 0.17 | 0.718 | 0.659 | inactive |
| KLHL38 | SID442890470 | 0.51 | 0.182 | 0.548 | inactive |
| STRADA | SID442894821 | 0.34 | -0.327 | -0.325 | inactive |
| LINGO2 | SID442895522 | 0.0233 | -0.108 | -0.449 | inactive |
| RNF25 | SID442890462 | 0.829 | 0.0251 | 0.389 | inactive |
| ARHGAP42 | SID442884492 | -2.02 | -2.41 | -2.2 | active |
| ARHGAP42 | SID442903108 | -1.01 | -1.69 | -0.954 | inactive |
| ITGA11 | SID442902532 | -0.619 | -1.06 | -1.61 | inactive |
| ZNF695 | SID442891055 | -0.165 | 0.8 | 0.375 | inactive |
| PRG2 | SID442895161 | -0.978 | 1.67 | -1.12 | inactive |
| FAM209B | SID442900180 | -0.58 | -0.967 | -0.628 | inactive |
| ARRDC3 | SID442883608 | 3.29 | 2.5 | 1.96 | active |
| PTK2 | SID442884307 | -2.07 | -1.64 | -1.97 | active |
| ST3GAL1 | SID442885506 | 1.46 | 1.25 | 1.75 | inactive |
| CYP4B1 | SID442893500 | 0.579 | -0.106 | -0.343 | inactive |
| MAB21L1 | SID442883813 | 2.17 | 2.23 | 2.45 | active |
| PRKAA2 | SID442891768 | -0.0389 | 0.403 | 0.377 | inactive |
| MAJIN | SID442896009 | -0.0561 | -0.197 | -0.435 | inactive |
| CXXC1 | SID442886178 | 1.31 | 1.45 | 0.957 | inactive |
| LYZL6 | SID442896107 | -1.07 | -1.01 | 1.37 | inactive |
| FBXO22 | SID442886747 | 0.882 | 0.764 | 1.57 | inactive |
| MOB3C | SID442883664 | 1.75 | 2.73 | 2.99 | active |
| LOC400849 (retired record) | SID442903921 | -1.51 | -1.5 | -1.29 | inactive |
| RPL9 | SID442903648 | -2.01 | -0.196 | -1.83 | inactive |
| EPHA5 | SID442900605 | -0.459 | -0.626 | -1.26 | inactive |
| GPN2 | SID442887271 | 0.754 | 1.78 | 0.31 | inactive |
| RIN2 | SID442888544 | -0.547 | 1.31 | 1.34 | inactive |
| HMGN3 | SID442892025 | 0.0543 | 0.284 | 0.316 | inactive |
| ENTHD1 | SID442898178 | -0.539 | -0.946 | 0.0753 | inactive |
